± gives the standard deviation of the averaged measurements. The effect of the compound repeats well; differences between the knockouts mostly do not.
Test system: SKBR3
Assay: relative cell number vs DMSO control (72 h) (% of DMSO); higher = less growth inhibition (more cells)
Description: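 QMAP-Seq: a pool of 5 breast cancer cell lines (ZR-75-1, SKBR3, HCC-38, MDA-MB-231, BT-20), each carrying 12 doxycycline-inducible Cas9 sgRNA perturbations (11 knockouts plus non-targeting sgNT), was treated with compounds for 72 h at four 10-fold doses (10 nM-10 uM or 1 nM-1 uM range). Barcodes were amplified and sequenced, and cell number was interpolated from 293T spike-in standard curves. The result is expressed as % of the median of DMSO wells. Two biological replicates.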

C[C@]1(O)C[C@@H](c2nc(-c3ccc4ccc(-c5ccccc5)nc4c3)c3c(N)nccn32)C1 [Linsitinib]
Conditions	relative cell number
sgRNA knockout: sgATF3, 10 nM	110 ± 23
sgRNA knockout: sgATF3, 100 nM	110 ± 2.3
sgRNA knockout: sgATF3, 1000 nM	90 ± 3.9
sgRNA knockout: sgATF3, 10000 nM	81.4 ± 1.8
sgRNA knockout: sgATF4, 10 nM	116 ± 23
sgRNA knockout: sgATF4, 100 nM	97.7 ± 5.4
sgRNA knockout: sgATF4, 1000 nM	77.1 ± 3.7
sgRNA knockout: sgATF4, 10000 nM	86.58 ± 0.57
sgRNA knockout: sgATF6, 10 nM	93.4 ± 21
sgRNA knockout: sgATF6, 100 nM	88.3 ± 19
sgRNA knockout: sgATF6, 1000 nM	105 ± 10
sgRNA knockout: sgATF6, 10000 nM	83.5 ± 4.4
sgRNA knockout: sgATG7, 10 nM	120 ± 14
sgRNA knockout: sgATG7, 100 nM	98.1 ± 26
sgRNA knockout: sgATG7, 1000 nM	75.2 ± 4.7
sgRNA knockout: sgATG7, 10000 nM	69.6 ± 3.3
sgRNA knockout: sgERN1, 10 nM	75.3 ± 19
sgRNA knockout: sgERN1, 100 nM	111 ± 26
sgRNA knockout: sgERN1, 1000 nM	103 ± 12
sgRNA knockout: sgERN1, 10000 nM	95.9 ± 20
sgRNA knockout: sgHSF1, 10 nM	99.4 ± 21
sgRNA knockout: sgHSF1, 100 nM	99.3 ± 18
sgRNA knockout: sgHSF1, 1000 nM	89 ± 3.5
sgRNA knockout: sgHSF1, 10000 nM	84 ± 3.7
sgRNA knockout: sgHSF2, 10 nM	101 ± 4.7
sgRNA knockout: sgHSF2, 100 nM	93.3 ± 7.5
sgRNA knockout: sgHSF2, 1000 nM	89 ± 7.9
sgRNA knockout: sgHSF2, 10000 nM	82.1 ± 4.7
sgRNA knockout: sgKEAP1, 10 nM	96.3 ± 18
sgRNA knockout: sgKEAP1, 100 nM	84 ± 0.87
sgRNA knockout: sgKEAP1, 1000 nM	80.6 ± 6.3
sgRNA knockout: sgKEAP1, 10000 nM	89.3 ± 4.2
sgRNA knockout: sgNFE2L2, 10 nM	107 ± 18
sgRNA knockout: sgNFE2L2, 100 nM	95.2 ± 2.9
sgRNA knockout: sgNFE2L2, 1000 nM	76.2 ± 8.2
sgRNA knockout: sgNFE2L2, 10000 nM	101 ± 0.52
sgRNA knockout: sgSLC35F2, 10 nM	91.4 ± 38
sgRNA knockout: sgSLC35F2, 100 nM	93.5 ± 53
sgRNA knockout: sgSLC35F2, 1000 nM	102 ± 6.1
sgRNA knockout: sgSLC35F2, 10000 nM	80.2 ± 18
sgRNA knockout: sgXBP1, 10 nM	107 ± 7.3
sgRNA knockout: sgXBP1, 100 nM	107 ± 19
sgRNA knockout: sgXBP1, 1000 nM	67.5 ± 12
sgRNA knockout: sgXBP1, 10000 nM	84.6 ± 2.8

Cc1ccc(NC(=O)c2ccc(CN3CCN(C)CC3)cc2)cc1Nc1nc(-c2cccnc2)cs1 [Masitinib]
Conditions	relative cell number
sgRNA knockout: sgATF3, 10 nM	100 ± 30
sgRNA knockout: sgATF3, 100 nM	95.4 ± 34
sgRNA knockout: sgATF3, 1000 nM	97.4 ± 36
sgRNA knockout: sgATF3, 10000 nM	65.7 ± 4.3
sgRNA knockout: sgATF4, 10 nM	92.4 ± 21
sgRNA knockout: sgATF4, 100 nM	87 ± 8.6
sgRNA knockout: sgATF4, 1000 nM	82.5 ± 24
sgRNA knockout: sgATF4, 10000 nM	80.9 ± 5
sgRNA knockout: sgATF6, 10 nM	94.3 ± 12
sgRNA knockout: sgATF6, 100 nM	75 ± 30
sgRNA knockout: sgATF6, 1000 nM	100 ± 38
sgRNA knockout: sgATF6, 10000 nM	69.2 ± 9.3
sgRNA knockout: sgATG7, 10 nM	75.2 ± 11
sgRNA knockout: sgATG7, 100 nM	114 ± 44
sgRNA knockout: sgATG7, 1000 nM	101 ± 40
sgRNA knockout: sgATG7, 10000 nM	77.8 ± 2.3
sgRNA knockout: sgERN1, 10 nM	113 ± 18
sgRNA knockout: sgERN1, 100 nM	102 ± 7.3
sgRNA knockout: sgERN1, 1000 nM	104 ± 37
sgRNA knockout: sgERN1, 10000 nM	83.5 ± 22
sgRNA knockout: sgHSF1, 10 nM	99.9 ± 32
sgRNA knockout: sgHSF1, 100 nM	94.7 ± 25
sgRNA knockout: sgHSF1, 1000 nM	90.1 ± 36
sgRNA knockout: sgHSF1, 10000 nM	81.3 ± 6.6
sgRNA knockout: sgHSF2, 10 nM	96.1 ± 20
sgRNA knockout: sgHSF2, 100 nM	76.6 ± 7.5
sgRNA knockout: sgHSF2, 1000 nM	104 ± 27
sgRNA knockout: sgHSF2, 10000 nM	74.5 ± 12
sgRNA knockout: sgKEAP1, 10 nM	111 ± 5
sgRNA knockout: sgKEAP1, 100 nM	76.4 ± 1.6
sgRNA knockout: sgKEAP1, 1000 nM	79.3 ± 21
sgRNA knockout: sgKEAP1, 10000 nM	88.5 ± 2.5
sgRNA knockout: sgNFE2L2, 10 nM	82.4 ± 5.4
sgRNA knockout: sgNFE2L2, 100 nM	93.6 ± 7.7
sgRNA knockout: sgNFE2L2, 1000 nM	79.6 ± 7.3
sgRNA knockout: sgNFE2L2, 10000 nM	90.3 ± 17
sgRNA knockout: sgSLC35F2, 10 nM	87.3 ± 30
sgRNA knockout: sgSLC35F2, 100 nM	96.5 ± 22
sgRNA knockout: sgSLC35F2, 1000 nM	74.7 ± 16
sgRNA knockout: sgSLC35F2, 10000 nM	83.1 ± 6.4
sgRNA knockout: sgXBP1, 10 nM	105 ± 8.3
sgRNA knockout: sgXBP1, 100 nM	79.4 ± 28
sgRNA knockout: sgXBP1, 1000 nM	89.1 ± 7.5
sgRNA knockout: sgXBP1, 10000 nM	81.9 ± 18

COC(=O)Nc1nc2cc(C(=O)c3ccccc3)ccc2[nH]1 [Mebendazole]
Conditions	relative cell number
sgRNA knockout: sgATF3, 10 nM	91.8 ± 3.2
sgRNA knockout: sgATF3, 100 nM	57.1 ± 10
sgRNA knockout: sgATF3, 1000 nM	12.7 ± 11
sgRNA knockout: sgATF3, 10000 nM	6.57 ± 2.3
sgRNA knockout: sgATF4, 10 nM	99.7 ± 2.1
sgRNA knockout: sgATF4, 100 nM	74.4 ± 16
sgRNA knockout: sgATF4, 1000 nM	8.73 ± 0.92
sgRNA knockout: sgATF4, 10000 nM	7.01 ± 4.2
sgRNA knockout: sgATF6, 10 nM	80.6 ± 14
sgRNA knockout: sgATF6, 100 nM	59.6 ± 3.7
sgRNA knockout: sgATF6, 1000 nM	7.27 ± 0.52
sgRNA knockout: sgATF6, 10000 nM	11.8 ± 3.9
sgRNA knockout: sgATG7, 10 nM	114 ± 2.5
sgRNA knockout: sgATG7, 100 nM	77.69 ± 0.098
sgRNA knockout: sgATG7, 1000 nM	9.895 ± 0.057
sgRNA knockout: sgATG7, 10000 nM	5.12 ± 2.5
sgRNA knockout: sgERN1, 10 nM	92.3 ± 13
sgRNA knockout: sgERN1, 100 nM	72.7 ± 14
sgRNA knockout: sgERN1, 1000 nM	9.09 ± 3.3
sgRNA knockout: sgERN1, 10000 nM	5.83 ± 1.4
sgRNA knockout: sgHSF1, 10 nM	97.8 ± 3.9
sgRNA knockout: sgHSF1, 100 nM	76.7 ± 11
sgRNA knockout: sgHSF1, 1000 nM	10.7 ± 4.7
sgRNA knockout: sgHSF1, 10000 nM	4.99 ± 2.2
sgRNA knockout: sgHSF2, 10 nM	103 ± 15
sgRNA knockout: sgHSF2, 100 nM	68.1 ± 5.6
sgRNA knockout: sgHSF2, 1000 nM	12.2 ± 4.8
sgRNA knockout: sgHSF2, 10000 nM	9.45 ± 4.1
sgRNA knockout: sgKEAP1, 10 nM	86.16 ± 0.45
sgRNA knockout: sgKEAP1, 100 nM	62.8 ± 21
sgRNA knockout: sgKEAP1, 1000 nM	7.66 ± 3.6
sgRNA knockout: sgKEAP1, 10000 nM	7.23 ± 3.5
sgRNA knockout: sgNFE2L2, 10 nM	108 ± 4.9
sgRNA knockout: sgNFE2L2, 100 nM	65.6 ± 17
sgRNA knockout: sgNFE2L2, 1000 nM	6.81 ± 2.1
sgRNA knockout: sgNFE2L2, 10000 nM	7.32 ± 5.4
sgRNA knockout: sgSLC35F2, 10 nM	83.8 ± 6
sgRNA knockout: sgSLC35F2, 100 nM	75.9 ± 6.5
sgRNA knockout: sgSLC35F2, 1000 nM	10.1 ± 1.9
sgRNA knockout: sgSLC35F2, 10000 nM	8.13 ± 3.8
sgRNA knockout: sgXBP1, 10 nM	114 ± 26
sgRNA knockout: sgXBP1, 100 nM	71.8 ± 15
sgRNA knockout: sgXBP1, 1000 nM	7.98 ± 0.52
sgRNA knockout: sgXBP1, 10000 nM	5.17 ± 2.3

Reference: the supplement of paper PMC7661543
